In the supplement of paper PMC7024190:
Where a name gives a salt, the structure may show the parent alone. The list shows a part of the results. This data set is noisy: repeats of one test often differ as much as different tests do.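 The cells were human embryonic kidney cells carrying a Renilla luciferase gene, driven by the HSV-TK promoter, on a plasmid put in briefly by transfection. This is the first-round screen of about ten thousand compounds, looking for ones that raise reporter output.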

Test system: HEK 293FT
Assay: log relative Renilla luciferase luminescence (reporter expression vs reference, reference not stated) (log (base not stated)); higher = higher recombinant reporter expression
Details: 10 µM; time after transfection 48 h

**Q.** `CC1(C)[C@H](C(=O)O)N2C(=O)C[C@H]2S1(=O)=O` [Sulbactam] was tested. Which log did it give?
**A.** Its log is -0.1.

**Q.** How did the log turn out when `Cc1ncc(CO)c(CO)c1O` [Pyridoxine hydrochloride] was run?
**A.** Its log is -0.219.

**Q.** How did the log turn out when `CCc1c(C)[nH]c2c1C(=O)C(CN1CCOCC1)CC2` (stereo not given) [Molindone hydrochloride] was run?
**A.** The log was -0.00598.

**Q.** How did the log turn out when `CCC1(c2ccccc2)NC(=O)N(C)C1=O` (stereo not given) [Mephenytoin] was run?
**A.** Its log is 0.241.

**Q.** Which log does the source give for `CC1=C(/C=C/C(C)=C/C=C/C(C)=C/C(=O)O)C(C)(C)CCC1` [Retinoic acid] here?
**A.** The log was 0.0562.

**Q.** Which log does the source give for `NC(=O)c1cc[n+](CC2=C(C(=O)[O-])N3C(=O)[C@@H](NC(=O)[C@@H](c4ccccc4)S(=O)(=O)O)[C@H]3SC2)cc1` [Cefsulodin sodium salt] here?
**A.** The log was -0.142.

**Q.** For `CC(=O)Oc1ccccc1C(=O)O` [Acetylsalicylic acid], which log is on record?
**A.** Its log is 0.0179.

**Q.** `N=C(N)NS(=O)(=O)c1ccc(N)cc1` [Sulfaguanidine] was tested. Which log did it give?
**A.** The log was 0.0787.

**Q.** `COc1cc2nc(N(C)CCCNC(=O)C3CCCO3)nc(N)c2cc1OC` (stereo not given) [Alfuzosin hydrochloride] was tested. Which log did it give?
**A.** The log was -0.367.

**Q.** Which log does the source give for `Clc1ccc(Cn2c(CN3CCCC3)nc3ccccc32)cc1` [Clemizole hydrochloride] here?
**A.** The log was 0.101.

**Q.** `N[C@@H]1CONC1=O` [D-cycloserine] was tested. Which log did it give?
**A.** The log was 0.173.

**Q.** With `O=C(O)COCCN1CCN(C(c2ccccc2)c2ccc(Cl)cc2)CC1` (stereo not given) [Cetirizine dihydrochloride] as the compound, how does the log read?
**A.** Its log is 0.0769.

**Q.** `C#C[C@]1(OC(C)=O)CC[C@H]2[C@@H]3CCC4=CC(=NO)CC[C@@H]4[C@H]3CC[C@@]21CC` (mixture of isomers) [Norgestimate] was tested. Which log did it give?
**A.** Its log is 0.0364.

**Q.** For `Clc1ccc(CO/N=C(\Cn2ccnc2)c2ccc(Cl)cc2Cl)c(Cl)c1` [Oxiconazole Nitrate], which log is on record?
**A.** The log was 0.129.

**Q.** With `CC(=O)O[C@]1(C(C)=O)CC[C@H]2[C@@H]3C=C(Cl)C4=CC(=O)[C@@H]5C[C@@H]5[C@]4(C)[C@H]3CC[C@@]21C` [Cyproterone acetate] as the compound, how does the log read?
**A.** Its log is -0.0623.

**Q.** Which log does the source give for `Clc1ccc(CSC(Cn2ccnc2)c2ccc(Cl)cc2Cl)cc1` (stereo not given) [Sulconazole nitrate] here?
**A.** Its log is -0.291.

**Q.** `CN(C)CCN(Cc1ccccc1)c1ccccn1` [Tripelennamine hydrochloride] was tested. Which log did it give?
**A.** The log was -0.0312.

**Q.** Which log does the source give for `CC1CNc2c(cccc2S(=O)(=O)N[C@@H](CCCNC(=N)N)C(=O)N2CC[C@@H](C)C[C@@H]2C(=O)O)C1` (stereo not given in full) [Argatroban] here?
**A.** The log was -0.0206.

**Q.** How did the log turn out when `CN1C(=O)CC(c2ccccc2)C1=O` (stereo not given) [Phensuximide] was run?
**A.** Its log is 0.0795.

**Q.** `Nc1ccn([C@@H]2O[C@H](CO)[C@@H](O)C2(F)F)c(=O)n1` [Gemcitabine] was tested. Which log did it give?
**A.** The log was -0.556.

**Q.** How did the log turn out when `CC(=O)O[C@@]12CO[C@@H]1C[C@H](O)[C@@]1(C)C(=O)[C@H](O)C3=C(C)[C@@H](OC(=O)[C@H](O)[C@@H](NC(=O)OC(C)(C)C)c4ccccc4)C[C@@](O)([C@@H](OC(=O)c4ccccc4)[C@H]21)C3(C)C` [Docetaxel] was run?
**A.** The log was 0.243.

**Q.** Which log does the source give for `N=C(N)NC(=O)Cc1c(Cl)cccc1Cl` [Guanfacine hydrochloride] here?
**A.** Its log is -0.0529.

**Q.** `CC(=O)[C@H]1CC[C@H]2[C@@H]3CCC4=CC(=O)CC[C@]4(C)[C@H]3CC[C@]12C` [Progesterone] was tested. Which log did it give?
**A.** The log was -0.224.

**Q.** `CN(C)CC/C=C1/c2ccccc2Sc2ccc(Cl)cc21` [Chlorprothixene hydrochloride] was tested. Which log did it give?
**A.** Its log is 0.0849.

**Q.** `NC(Cc1cc(I)c(Oc2cc(I)c(O)c(I)c2)c(I)c1)C(=O)O` (stereo not given) [Thyroxine (L)] was tested. Which log did it give?
**A.** The log was -0.305.

**Q.** Which log does the source give for `CN(C)CCOC(c1ccccc1)c1ccccc1` [Diphenhydramine hydrochloride] here?
**A.** Its log is 0.127.

**Q.** How did the log turn out when `COc1ccc2[nH]c([S+]([O-])Cc3ncc(C)c(OC)c3C)nc2n1` (stereo not given) [Tenatoprazole] was run?
**A.** Its log is -0.102.

**Q.** How did the log turn out when `C[C@]12CC[C@@H]3c4ccc(O)cc4CC[C@H]3[C@@H]1CC[C@@H]2O` [Estradiol-17 beta] was run?
**A.** Its log is -0.597.

**Q.** Which log does the source give for `CCCN(CCC)S(=O)(=O)c1ccc(C(=O)O)cc1` [Probenecid] here?
**A.** The log was 0.0878.

**Q.** How did the log turn out when `CCCc1cc(=O)[nH]c(=S)[nH]1` [Propylthiouracil] was run?
**A.** The log was 0.0157.

**Q.** With `COc1ccc(CCN(C)CCCC(C#N)(c2ccc(OC)c(OC)c2)C(C)C)cc1OC` (stereo not given) [Verapamil hydrochloride] as the compound, how does the log read?
**A.** Its log is 0.21.

**Q.** Which log does the source give for `C[N+]1(CCCCC[N+]2(C)CCCC2)CCCC1` [Pentolinium bitartrate] here?
**A.** Its log is 0.0452.

**Q.** Which log does the source give for `Oc1ncnc2[nH]ncc12` [Allopurinol] here?
**A.** The log was 0.187.

**Q.** `CNCCCC1c2ccccc2C=Cc2ccccc21` [Protriptyline hydrochloride] was tested. Which log did it give?
**A.** Its log is 0.0878.

**Q.** `CCCCCCC[N+](CC)(CC)CCCCc1ccc(Cl)cc1` [Clofilium tosylate] was tested. Which log did it give?
**A.** The log was 0.00719.

**Q.** How did the log turn out when `C[C@]12CCC(=O)C=C1CC[C@@H]1[C@@H]2[C@@H](O)C[C@@]2(C)[C@H]1CC[C@]2(O)C(=O)CO` [Hydrocortisone base] was run?
**A.** The log was -0.0288.

**Q.** Which log does the source give for `CN[C@@H]1[C@H](O[C@H]2[C@H](O[C@H]3[C@H](O)[C@@H](O)[C@H](N=C(N)N)[C@@H](O)[C@@H]3N=C(N)N)O[C@@H](C)[C@]2(O)C=O)O[C@@H](CO)[C@H](O)[C@H]1O` [Streptomycin sulfate] here?
**A.** The log was -0.452.

**Q.** With `Nc1nc(Cl)nc2c1ncn2[C@H]1C[C@H](O)[C@@H](CO)O1` [Cladribine] as the compound, how does the log read?
**A.** Its log is -0.834.

**Q.** How did the log turn out when `OCCOCCN1CCN(C2=Nc3ccccc3Sc3ccccc32)CC1` [Quetiapine] was run?
**A.** The log was 0.0562.

**Q.** How did the log turn out when `CC1(C)S[C@@H]2[C@H](NC(=O)[C@H](N)c3ccc(O)cc3)C(=O)N2[C@H]1C(=O)O` [Amoxicillin] was run?
**A.** Its log is 0.093.

**Q.** With `CCC(=O)O[C@@H](O[P@](=O)(CCCCc1ccccc1)CC(=O)N1C[C@H](C2CCCCC2)C[C@H]1C(=O)O)C(C)C` [Fosinopril] as the compound, how does the log read?
**A.** The log was 0.0542.

**Q.** Which log does the source give for `COc1cccc2c1C(=O)c1c(O)c3c(c(O)c1C2=O)C[C@@](O)(C(=O)CO)C[C@@H]3O[C@H]1C[C@H](N)[C@H](O)[C@H](C)O1` [Doxorubicin hydrochloride] here?
**A.** Its log is -0.865.

**Q.** `CCCCC(=O)O[C@H]1CC[C@H]2[C@@H]3CCc4cc(O)ccc4[C@H]3CC[C@]12C` [Estradiol Valerate] was tested. Which log did it give?
**A.** Its log is -0.54.

**Q.** With `N=C(N)c1ccc(OCCCCCOc2ccc(C(=N)N)cc2)cc1` [Pentamidine isethionate] as the compound, how does the log read?
**A.** The log was -0.0196.

**Q.** Which log does the source give for `Fc1ccc(C(c2ccc(F)cc2)N2CCN(C/C=C/c3ccccc3)CC2)cc1` [Flunarizine dihydrochloride] here?
**A.** Its log is 0.0503.
